Assay in all cases: co-IP
Experiment [1] addresses RhoBTB3 (UniProt O94955).
For experiment [2], the target named is GFP tagged SHIP164 (Syntaxin 6-interacting protein with 164 kDa) (UniProt A0JNW5).
For experiment [3], the target named is RhoBTB3-1-399 (UniProt O94955).
In experiment [4] the target is GFP-SHIP164-CT (UniProt A0JNW5).
Experiment [5] deals with SHIP164-1-104 (RhoBTB3-interacting domain, RBID) (UniProt A0JNW5).
The target in experiment [6] is RhoBTB3 (UniProt O94955). The source holds these as a separate data set.
For experiment [7], the target named is GFP tagged SHIP164 (Syntaxin 6-interacting protein with 164 kDa) (UniProt A0JNW5). The source holds these as a separate data set.

Protein sequences, listed by entry. Tags and fused reporters are not part of them. Lines headed by an entry give the natural chain unless they say otherwise; changes in a name come on top. Residues count along the entry.
UniProt O94955: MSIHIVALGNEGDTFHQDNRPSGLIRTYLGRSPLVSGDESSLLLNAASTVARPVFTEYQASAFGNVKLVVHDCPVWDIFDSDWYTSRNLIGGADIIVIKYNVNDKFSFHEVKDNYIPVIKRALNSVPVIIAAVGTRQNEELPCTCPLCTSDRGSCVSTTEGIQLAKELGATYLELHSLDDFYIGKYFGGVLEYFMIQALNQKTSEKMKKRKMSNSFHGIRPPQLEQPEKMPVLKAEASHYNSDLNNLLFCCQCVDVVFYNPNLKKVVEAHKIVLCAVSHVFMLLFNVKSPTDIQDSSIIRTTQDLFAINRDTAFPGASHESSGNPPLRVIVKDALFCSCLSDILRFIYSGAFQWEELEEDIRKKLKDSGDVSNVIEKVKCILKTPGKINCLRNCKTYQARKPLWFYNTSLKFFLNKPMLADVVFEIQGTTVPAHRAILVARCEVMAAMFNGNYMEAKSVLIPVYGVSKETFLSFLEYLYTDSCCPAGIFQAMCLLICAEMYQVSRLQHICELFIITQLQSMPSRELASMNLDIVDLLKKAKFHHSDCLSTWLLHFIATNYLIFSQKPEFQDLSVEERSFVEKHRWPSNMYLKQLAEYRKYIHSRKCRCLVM
UniProt A0JNW5: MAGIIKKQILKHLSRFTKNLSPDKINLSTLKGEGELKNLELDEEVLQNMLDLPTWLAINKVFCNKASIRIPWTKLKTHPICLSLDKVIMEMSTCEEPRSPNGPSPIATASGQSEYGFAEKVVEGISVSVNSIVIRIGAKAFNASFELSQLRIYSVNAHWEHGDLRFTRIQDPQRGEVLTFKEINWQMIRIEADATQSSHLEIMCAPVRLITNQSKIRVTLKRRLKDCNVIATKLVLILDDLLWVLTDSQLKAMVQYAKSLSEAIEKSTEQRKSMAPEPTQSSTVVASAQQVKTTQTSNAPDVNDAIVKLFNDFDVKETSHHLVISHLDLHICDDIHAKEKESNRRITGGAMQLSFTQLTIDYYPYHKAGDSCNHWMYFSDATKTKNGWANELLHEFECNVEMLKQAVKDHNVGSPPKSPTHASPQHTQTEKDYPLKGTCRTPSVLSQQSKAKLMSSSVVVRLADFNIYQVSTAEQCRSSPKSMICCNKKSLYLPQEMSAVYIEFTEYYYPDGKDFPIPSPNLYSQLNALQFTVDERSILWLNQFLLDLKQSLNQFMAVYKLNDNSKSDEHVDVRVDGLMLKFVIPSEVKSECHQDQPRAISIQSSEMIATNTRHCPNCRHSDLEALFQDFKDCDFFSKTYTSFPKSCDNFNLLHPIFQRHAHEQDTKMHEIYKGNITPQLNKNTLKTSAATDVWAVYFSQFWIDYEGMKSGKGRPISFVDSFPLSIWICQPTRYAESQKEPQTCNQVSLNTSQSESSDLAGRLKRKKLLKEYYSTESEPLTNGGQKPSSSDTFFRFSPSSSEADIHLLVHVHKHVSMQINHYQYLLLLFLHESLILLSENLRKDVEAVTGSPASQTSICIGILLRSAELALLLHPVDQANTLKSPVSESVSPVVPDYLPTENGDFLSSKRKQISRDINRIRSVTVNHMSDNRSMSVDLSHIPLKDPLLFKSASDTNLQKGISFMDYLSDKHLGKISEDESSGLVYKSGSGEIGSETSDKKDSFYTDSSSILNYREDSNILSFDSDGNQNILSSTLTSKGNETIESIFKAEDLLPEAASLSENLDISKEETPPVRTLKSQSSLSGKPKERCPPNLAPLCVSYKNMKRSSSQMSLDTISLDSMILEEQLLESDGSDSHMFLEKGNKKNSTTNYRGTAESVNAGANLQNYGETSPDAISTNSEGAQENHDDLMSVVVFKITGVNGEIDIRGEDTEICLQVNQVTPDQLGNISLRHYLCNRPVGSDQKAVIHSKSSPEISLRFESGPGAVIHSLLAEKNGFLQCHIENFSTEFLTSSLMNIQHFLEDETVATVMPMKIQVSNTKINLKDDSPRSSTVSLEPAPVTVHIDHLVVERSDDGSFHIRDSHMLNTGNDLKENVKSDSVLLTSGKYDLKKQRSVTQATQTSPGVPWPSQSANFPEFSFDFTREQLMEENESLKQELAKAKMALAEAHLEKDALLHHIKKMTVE
GFP-SHIP164-CT: residues 890-1464 of A0JNW5
UniProt Q4G0F5: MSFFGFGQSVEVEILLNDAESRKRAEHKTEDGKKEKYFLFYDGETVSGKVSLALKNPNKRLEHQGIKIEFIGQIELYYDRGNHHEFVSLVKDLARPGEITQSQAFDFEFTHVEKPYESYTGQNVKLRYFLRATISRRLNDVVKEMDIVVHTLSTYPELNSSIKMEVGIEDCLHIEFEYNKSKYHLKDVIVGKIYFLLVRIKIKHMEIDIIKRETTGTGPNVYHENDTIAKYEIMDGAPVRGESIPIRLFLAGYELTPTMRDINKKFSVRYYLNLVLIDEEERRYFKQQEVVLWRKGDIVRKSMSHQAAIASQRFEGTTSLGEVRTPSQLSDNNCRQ

Like-named read-outs stand apart in the source and are kept apart here. No constants are given. Whether binding was seen depends on the method and setting. In cells and extracts the contact can be indirect. Some entries that bind do so weakly or less than the wild type.

These results are taken from publication doi:10.1101/2022.09.30.510409.

With RhoBTB3 (from UniProt O94955 1-611), the binding entry in experiment [1] and in experiment [2] was “binds” in each case.
For “RhoBTB3-1-399 (from UniProt O94955 1-399) (domain or fragment)”, the binding entry in experiment [1] and in experiment [3] was “binds” in each case.
Take “Halo-RhoBTB3-400-612 (from UniProt O94955 400-611) (domain or fragment)”: the binding result in experiment [1] and in experiment [3] was “binds” in each case.
Take Halo-Vps26A (from UniProt O75436 1-327): in experiment [4], the binding entry was “no binding”.
With “SHIP164-1-104 (RhoBTB3-interacting domain, RBID) (from UniProt A0JNW5 1-104) (domain or fragment)”, the binding result in experiment [5] and in experiment [2] was “binds” in each case.
Take Halo-Vps26B (from UniProt Q4G0F5 1-336): the binding entry in experiment [4] is “binds”.
With “Halo-RhoBTB3-N138D (from UniProt O94955 1-611)”, the binding entry in experiment [5] was “binds”.
Still for that read-out and setting: the value for “Halo-RhoBTB3-I533K (from UniProt O94955 1-611)” was “binds”; that for “Halo-RhoBTB3-A498T (from UniProt O94955 1-611)” was “binds”.

B1: SMS1-Halo (enzyme, UniProt Q86VZ5 1-413)
chain: MKEVVYWSPKKVADWLLENAMPEYCEPLEHFTGQDLINLTQEDFKKPPLCRVSSDNGQRLLDMIETLKMEHHLEAHKNGHANGHLNIGVDIPTPDGSFSIKIKPNGMPNGYRKEMIKIPMPELERSQYPMEWGKTFLAFLYALSCFVLTTVMISVVHERVPPKEVQPPLPDTFFDHFNRVQWAFSICEINGMILVGLWLIQWLLLKYKSIISRRFFCIVGTLYLYRCITMYVTTLPVPGMHFNCSPKLFGDWEAQLRRIMKLIAGGGLSITGSHNMCGDYLYSGHTVMLTLTYLFIKEYSPRRLWWYHWICWLLSVVGIFCILLAHDHYTVDVVVAYYITTRLFWWYHTMANQQVLKEASQMNLLARVWWYRPFQYFEKNVQGIVPRSYHWPFPWPVVHLSRQVKYSRLVNDT
For B1, the binding result in experiment [6] is “binds”.

B2: SPTLC3-174-427-Halo (domain or fragment, UniProt Q9NUV7 174-427)
chain: AAKYDESMRTIKDVLEVYGTGVASTRHEMGTLDKHKELEDLVAKFLNVEAAMVFGMGFATNSMNIPALVGKGCLILSDELNHTSLVLGARLSGATIRIFKHNNTQSLEKLLRDAVIYGQPRTRRAWKKILILVEGVYSMEGSIVHLPQIIALKKKYKAYLYIDEAHSIGAVGPTGRGVTEFFGLDPHEVDVLMGTFTKSFGASGGYIAGRKDLVDYLRVHSHSAVYASSMSPPIAEQIIRSLKLIMGLDGTTQG
As for B2, the binding result in experiment [6] is given as “binds”.

B3: PEMT-Halo (enzyme, UniProt Q9UBM1 1-199)
chain: MTRLLGYVDPLDPSFVAAVITITFNPLYWNVVARWEHKTRKLSRAFGSPYLACYSLSVTILLLNFLRSHCFTQAMLSQPRMESLDTPAAYSLGLALLGLGVVLVLSSFFALGFAGTFLGDYFGILKEARVTVFPFNILDNPMYWGSTANYLGWAIMHASPTGLLLTVLVALTYIVALLYEEPFTAEIYRQKASGSHKRS
In the case of B3, in experiment [6], the binding result is listed as “binds”.

B4: CHPT1-Halo (enzyme, UniProt Q8WUD6 1-406)
chain: MAAGAGAGSAPRWLRALSEPLSAAQLRRLEEHRYSAAGVSLLEPPLQLYWTWLLQWIPLWMAPNSITLLGLAVNVVTTLVLISYCPTATEEAPYWTYLLCALGLFIYQSLDAIDGKQARRTNSCSPLGELFDHGCDSLSTVFMAVGASIAARLGTYPDWFFFCSFIGMFVFYCAHWQTYVSGMLRFGKVDVTEIQIALVIVFVLSAFGGATMWDYTIPILEIKLKILPVLGFLGGVIFSCSNYFHVILHGGVGKNGSTIAGTSVLSPGLHIGLIIILAIMIYKKSATDVFEKHPCLYILMFGCVFAKVSQKLVVAHMTKSELYLQDTVFLGPGLLFLDQYFNNFIDEYVVLWMAMVISSFDMVIYFSALCLQISRHLHLNIFKTACHQAPEQVQVLSSKSHQNNMD
For B4, the binding result in experiment [6] is “binds”.

B5: SPTLC3-Halo (enzyme, UniProt Q9NUV7 1-552)
chain: MANPGGGAVCNGKLHNHKKQSNGSQSRNCTKNGIVKEAQQNGKPHFYDKLIVESFEEAPLHVMVFTYMGYGIGTLFGYLRDFLRNWGIEKCNAAVERKEQKDFVPLYQDFENFYTRNLYMRIRDNWNRPICSAPGPLFDLMERVSDDYNWTFRFTGRVIKDVINMGSYNFLGLAAKYDESMRTIKDVLEVYGTGVASTRHEMGTLDKHKELEDLVAKFLNVEAAMVFGMGFATNSMNIPALVGKGCLILSDELNHTSLVLGARLSGATIRIFKHNNTQSLEKLLRDAVIYGQPRTRRAWKKILILVEGVYSMEGSIVHLPQIIALKKKYKAYLYIDEAHSIGAVGPTGRGVTEFFGLDPHEVDVLMGTFTKSFGASGGYIAGRKDLVDYLRVHSHSAVYASSMSPPIAEQIIRSLKLIMGLDGTTQGLQRVQQLAKNTRYFRQRLQEMGFIIYGNENASVVPLLLYMPGKVAAFARHMLEKKIGVVVVGFPATPLAEARARFCVSAAHTREMLDTVLEALDEMGDLLQLKYSRHKKSARPELYDETSFELED
For the molecule B5, the binding entry in experiment [6] and in experiment [7] was “binds” throughout.

B6: CerS2-Halo (enzyme, UniProt Q96G23 1-380)
chain: MLQTLYDYFWWERLWLPVNLTWADLEDRDGRVYAKASDLYITLPLALLFLIVRYFFELYVATPLAALLNIKEKTRLRAPPNATLEHFYLTSGKQPKQVEVELLSRQSGLSGRQVERWFRRRRNQDRPSLLKKFREASWRFTFYLIAFIAGMAVIVDKPWFYDMKKVWEGYPIQSTIPSQYWYYMIELSFYWSLLFSIASDVKRKDFKEQIIHHVATIILISFSWFANYIRAGTLIMALHDSSDYLLESAKMFNYAGWKNTCNNIFIVFAIVFIITRLVILPFWILHCTLVYPLELYPAFFGYYFFNSMMGVLQLLHIFWAYLILRMAHKFITGKLVEDERSDREETESSEGEEAAAGGGAKSRPLANGHPILNNNHRKND
Consider B6, for which, in experiment [6], the binding entry is recorded as “binds”.

B7: SPTLC3-1-173-Halo (domain or fragment, UniProt Q9NUV7 1-173)
chain: MANPGGGAVCNGKLHNHKKQSNGSQSRNCTKNGIVKEAQQNGKPHFYDKLIVESFEEAPLHVMVFTYMGYGIGTLFGYLRDFLRNWGIEKCNAAVERKEQKDFVPLYQDFENFYTRNLYMRIRDNWNRPICSAPGPLFDLMERVSDDYNWTFRFTGRVIKDVINMGSYNFLGL
In the case of B7, the binding entry in experiment [6] was “binds”.
